Measured data: PubChem BioAssay AID1671195 (Yale University, 2021)

- Test: 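Genes whose knockdown alters LDL uptake in liver cancer cells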 (primary screen)
- Cell system: human Huh7 hepatoma cells
- Reagents: siRNA pool against human genes, 18 nM
- Timing: about 2 to 2.5 days of knockdown, then 8 h LDL uptake
- Challenge: DiI-labelled LDL at 30 µg/ml for 8 h, in lipoprotein-deficient serum medium
- Detection: 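Per-cell DiI-LDL intensity by automated imaging; well means scaled to the plate median and given as a robust z-score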
- Direction: robust z-score: higher = more LDL uptake after knockdown
- Hit rule: 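Active when two or more replicates show a robust z-score above 2 or below -2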
In all, the deposit lists about 22,000 reagents; below is an unselected part. Of all reagents, about 1,510 (6.9%) are marked active. 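Active includes knockdowns raising or lowering LDL uptake; positive z-scores mean more uptake, negative mean less.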 A number with no mark means an inactive call.

C5orf24 (chromosome 5 open reading frame 24)
- robust z-score, replicate 1: -1.71
- robust z-score, replicate 2: 0.0426
- robust z-score, replicate 3: 0.29

PRAC2 (PRAC2 small nuclear protein)
- robust z-score, replicate 1: -1.79
- robust z-score, replicate 2: -1.35
- robust z-score, replicate 3: -1.6

CLN6 (CLN6 transmembrane ER protein)
- robust z-score, replicate 1: -1.1
- robust z-score, replicate 2: 0.0713
- robust z-score, replicate 3: -0.0256

KLHL28 (kelch like family member 28)
- robust z-score, replicate 1: -1.23
- robust z-score, replicate 2: -1.57
- robust z-score, replicate 3: 0.0667

LOC440935 (retired record)
- robust z-score, replicate 1: -0.986
- robust z-score, replicate 2: 0.451
- robust z-score, replicate 3: 0.0839

BASP1-AS1 (BASP1 antisense RNA 1)
- robust z-score, replicate 1: -1.25
- robust z-score, replicate 2: -0.723
- robust z-score, replicate 3: -0.765

LUZP2 (leucine zipper protein 2)
- robust z-score, replicate 1: -0.536
- robust z-score, replicate 2: -0.728
- robust z-score, replicate 3: -0.481

YES1 (YES proto-oncogene 1, Src family tyrosine kinase)
- robust z-score, replicate 1: 2.16 (active)
- robust z-score, replicate 2: 2.61
- robust z-score, replicate 3: 2.74

In a second layout: entries from further up.
C5orf24 (chromosome 5 open reading frame 24): robust z-score, replicate 1 = -1.71; robust z-score, replicate 2 = 0.0426; robust z-score, replicate 3 = 0.29
PRAC2 (PRAC2 small nuclear protein): robust z-score, replicate 1 = -1.79; robust z-score, replicate 2 = -1.35; robust z-score, replicate 3 = -1.6

Next entries follow.
LOC442369 (retired record)
- robust z-score, replicate 1: -0.16
- robust z-score, replicate 2: -0.0231
- robust z-score, replicate 3: 0.241

OLIG1 (oligodendrocyte transcription factor 1)
- robust z-score, replicate 1: -0.302
- robust z-score, replicate 2: -0.578
- robust z-score, replicate 3: -0.823

LOC440549 (retired record)
- robust z-score, replicate 1: 1.24
- robust z-score, replicate 2: 0.889
- robust z-score, replicate 3: 0.546

INCENP (inner centromere protein)
- robust z-score, replicate 1: 0.621
- robust z-score, replicate 2: 0.646
- robust z-score, replicate 3: 0.343

FSCN1 (fascin actin-bundling protein 1)
- robust z-score, replicate 1: -0.0487
- robust z-score, replicate 2: 1.84
- robust z-score, replicate 3: 0.407

CRYL1 (crystallin lambda 1)
- robust z-score, replicate 1: 0.46
- robust z-score, replicate 2: 0.218
- robust z-score, replicate 3: -0.258

LINC00649 (long independently transcribed non-coding RNA 649)
- robust z-score, replicate 1: 2.6 (active)
- robust z-score, replicate 2: 2.18
- robust z-score, replicate 3: 2.12

GLP1R (glucagon like peptide 1 receptor)
- robust z-score, replicate 1: -1.4
- robust z-score, replicate 2: -0.469
- robust z-score, replicate 3: -1.24

PPP3R2 (protein phosphatase 3 regulatory subunit B, beta)
- robust z-score, replicate 1: 0.0194
- robust z-score, replicate 2: -1.03
- robust z-score, replicate 3: 0.0518

ARL5A (ARF like GTPase 5A)
- robust z-score, replicate 1: -0.686
- robust z-score, replicate 2: -0.494
- robust z-score, replicate 3: -0.883

LOC390511 (retired record)
- robust z-score, replicate 1: 0.922
- robust z-score, replicate 2: 0.807
- robust z-score, replicate 3: 1.2

SEMA6D (semaphorin 6D)
- robust z-score, replicate 1: -0.18
- robust z-score, replicate 2: 1.57
- robust z-score, replicate 3: -0.698

LOC254938 (retired record)
- robust z-score, replicate 1: 0.522
- robust z-score, replicate 2: 1.12
- robust z-score, replicate 3: 1.13

SDCBP2 (syndecan binding protein 2)
- robust z-score, replicate 1: -0.802
- robust z-score, replicate 2: -0.154
- robust z-score, replicate 3: 0.99

MGAM2 (maltase-glucoamylase 2 (putative))
- robust z-score, replicate 1: 0.627
- robust z-score, replicate 2: 0.93
- robust z-score, replicate 3: 1.28

LOC442125 (retired record)
- robust z-score, replicate 1: -0.0966
- robust z-score, replicate 2: -0.181
- robust z-score, replicate 3: 0.188
